From patent publication US20180327494A1
No constants are given. Whether binding was seen depends on the method and setting. Some results given as binding are weak or reduced against the parent protein; the word gives no strength.

B1: PDL1-38 dAb (VHH, not shown: small tags and cut ends)
VHH: QVQLQESGGGSVQAGGSLRLSCAVSGFISSRRCMGWFRQAPGKERVGVANITGTGNTYLADSVKGRFTISQNNAKSTVYLQMNSLKPEDTAMYYCAADSFPTCTVVASSGAFQYWGQGTQVTVSS
B2: PDL1-87 dAb (VHH, not shown: small tags and cut ends)
VHH: QVQLQESGGGSVQAGGSLKLSCAASGYIFSSCGMGWYRQAPGKERELVSTISSDGTTSYADSVKGRFTISQDNAKNTLYLQMNSLKTEDTAVYYCVADCPPIPEFTSCSGGYCLSGDYWGQGTQVTVSS

Target: PDL1-Fc fusion protein (human)
Assay: ELISA, PDL1-Fc coated

Binder | binding
B1 | binds
B2 | binds
